The values below come from publication PMC12540039.

The chains behind the UniProt entries cited, without tags or fusion partners. Residues count along the entry.
UniProt P02340: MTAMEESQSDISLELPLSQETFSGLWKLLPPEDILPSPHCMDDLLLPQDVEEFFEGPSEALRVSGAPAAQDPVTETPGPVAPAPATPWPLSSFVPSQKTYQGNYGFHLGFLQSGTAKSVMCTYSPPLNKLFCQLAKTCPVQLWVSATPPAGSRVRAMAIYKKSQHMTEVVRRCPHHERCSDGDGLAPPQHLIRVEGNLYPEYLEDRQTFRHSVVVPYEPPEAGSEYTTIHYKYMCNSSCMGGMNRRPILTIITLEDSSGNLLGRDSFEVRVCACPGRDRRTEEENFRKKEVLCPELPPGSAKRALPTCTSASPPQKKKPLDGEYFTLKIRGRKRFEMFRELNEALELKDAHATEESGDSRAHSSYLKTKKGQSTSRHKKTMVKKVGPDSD
UniProt P38647, residues 47-679: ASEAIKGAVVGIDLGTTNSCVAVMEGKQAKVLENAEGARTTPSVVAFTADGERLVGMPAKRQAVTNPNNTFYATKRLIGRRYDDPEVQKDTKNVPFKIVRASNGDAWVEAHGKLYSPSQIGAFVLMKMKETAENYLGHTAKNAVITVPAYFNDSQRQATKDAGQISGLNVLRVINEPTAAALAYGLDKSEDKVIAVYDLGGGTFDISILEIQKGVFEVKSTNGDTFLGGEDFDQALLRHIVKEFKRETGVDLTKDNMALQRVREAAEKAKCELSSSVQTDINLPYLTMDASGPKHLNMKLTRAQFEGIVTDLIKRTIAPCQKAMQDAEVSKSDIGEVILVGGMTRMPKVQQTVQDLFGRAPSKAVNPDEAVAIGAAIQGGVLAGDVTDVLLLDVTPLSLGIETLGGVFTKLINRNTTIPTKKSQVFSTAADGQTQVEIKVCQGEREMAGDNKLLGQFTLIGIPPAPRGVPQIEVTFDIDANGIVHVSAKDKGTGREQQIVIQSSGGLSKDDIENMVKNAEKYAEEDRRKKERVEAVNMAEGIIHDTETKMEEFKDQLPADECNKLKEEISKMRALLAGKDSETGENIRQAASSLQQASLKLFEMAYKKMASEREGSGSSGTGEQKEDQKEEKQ

Test [1] concerns the target p53 (mouse (endogenous in gastrocnemius muscle)) (UniProt P02340). The test can be described thus: co-IP; gastrocnemius muscle lysates of HFD-fed control and iMp53 KO mice; Classic Magnetic IP Kit, IP Lysis/Wash Buffer with phosphatase inhibitors; incubated overnight at 4 °C with control IgG or specific antibody, magnetic beads 1 h at room temperature; detected by Western blotting.

Test [2] concerns the target glucose-regulated protein 75 (mouse (endogenous in gastrocnemius muscle)) (UniProt P38647). The test is described as above.

These are yes or no findings as the source states them, for the method shown. In cells and extracts the contact can be indirect. Some results given as binding are weak or reduced against the parent protein; the word gives no strength.

Consider “glucose-regulated protein 75 (from UniProt P38647 47-679)”, for which, in test [1], the binding result was “binds”.

Regarding p53 (from UniProt P02340 1-390), the binding entry in test [2] was “binds”.
